PubChem BioAssay AID1508597 | Cure First | 2020
Assay: 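Genes whose silencing sensitises or protects ovarian cancer cells against rucaparib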 (primary screen). Cells: human ovarian carcinoma lines grown from tumours: OCI-P5x (papillary serous) and OCI-C5x (clear cell). Knock-down reagent: siRNA pool against human genes, 1.25 pmol siRNA per well. Duration: 72 h or 96 h, depending on the cell culture. Treatment: rucaparib 20 µM (about IC30) or vehicle, present until read-out. Rucaparib or vehicle: Rucaparib. Cell line: OCI-C5x (clear cell). Measurement: 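Luminescent ATP-based viability assay read 72 or 96 h after transfection, depending on culture, given as normalised percent viability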. Direction: viability, normalised: higher = more viable cells remaining. Hit rule: 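a well counts as a hit if its normalised viability is under 80 percent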. Calls: active = viability under 80%; inactive = viability 80% or more.
This is a random part of the about 2,100 reagents, under one of the conditions tested. 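Calls flag viability under 80% in either arm, not effects specific to rucaparib; the reference for percent is not stated.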 Entries without a mark were called inactive. A reagent listed more than once was tested more than once; the source does not tell the runs apart. Not given: the 100% reference.

| gene knocked down | PubChem SID | technical replicate | viability, normalised (%) |
| --- | --- | --- | --- |
| PGGT1B (protein geranylgeranyltransferase type I subunit beta) | SID405527137 | 1 | 48.2 (active) |
| PGGT1B (protein geranylgeranyltransferase type I subunit beta) | SID405527137 | 2 | 41.3 (active) |
| PGGT1B (protein geranylgeranyltransferase type I subunit beta) | SID405527137 | 3 | 32.6 (active) |
| MRI1 (methylthioribose-1-phosphate isomerase 1) | SID405526370 | 1 | 69 (active) |
| MRI1 (methylthioribose-1-phosphate isomerase 1) | SID405526370 | 2 | 62.8 (active) |
| MRI1 (methylthioribose-1-phosphate isomerase 1) | SID405526370 | 3 | 68.4 (active) |
| PMAIP1 (phorbol-12-myristate-13-acetate-induced protein 1) | SID405527169 | 1 | 34.8 (active) |
| PMAIP1 (phorbol-12-myristate-13-acetate-induced protein 1) | SID405527169 | 2 | 67.6 (active) |
| PMAIP1 (phorbol-12-myristate-13-acetate-induced protein 1) | SID405527169 | 3 | 30 (active) |
| MYSM1 (Myb like, SWIRM and MPN domains 1) | SID405527050 | 1 | 44.5 (active) |
| MYSM1 (Myb like, SWIRM and MPN domains 1) | SID405527050 | 2 | 50.5 (active) |
| MYSM1 (Myb like, SWIRM and MPN domains 1) | SID405527050 | 3 | 45.9 (active) |
| AKT1 (AKT serine/threonine kinase 1) | SID405527643 | 1 | 49.2 (active) |
| AKT1 (AKT serine/threonine kinase 1) | SID405527643 | 2 | 48.3 (active) |
| AKT1 (AKT serine/threonine kinase 1) | SID405527643 | 3 | 49.7 (active) |
| PLCD4 (phospholipase C delta 4) | SID405526711 | 1 | 62.7 (active) |
| PLCD4 (phospholipase C delta 4) | SID405526711 | 2 | 61.9 (active) |
| PLCD4 (phospholipase C delta 4) | SID405526711 | 3 | 47.9 (active) |
| DCLRE1C (DNA cross-link repair 1C) | SID405528165 | 1 | 48.4 (active) |
| DCLRE1C (DNA cross-link repair 1C) | SID405528165 | 1 | 35.8 (active) |
| DCLRE1C (DNA cross-link repair 1C) | SID405528165 | 2 | 23 (active) |
| DCLRE1C (DNA cross-link repair 1C) | SID405528165 | 2 | 46.1 (active) |
| DCLRE1C (DNA cross-link repair 1C) | SID405528165 | 3 | 49.5 (active) |
| DCLRE1C (DNA cross-link repair 1C) | SID405528165 | 3 | 23.1 (active) |

No new results follow: entries from further up.
| gene knocked down | PubChem SID | technical replicate | viability, normalised (%) |
| --- | --- | --- | --- |
| AKT1 (AKT serine/threonine kinase 1) | SID405527643 | 2 | 48.3 (active) |
| AKT1 (AKT serine/threonine kinase 1) | SID405527643 | 3 | 49.7 (active) |
